Assay results taken from doi:10.1101/2021.12.07.471666.
Results are given in words; binding and its absence hold for the method and conditions named. Binding seen in cells or lysates may run through a third protein. Some entries that bind do so weakly or less than the wild type.

By UniProt entry, the sequences of proteins in these tests, tags left out.
UniProt P06730: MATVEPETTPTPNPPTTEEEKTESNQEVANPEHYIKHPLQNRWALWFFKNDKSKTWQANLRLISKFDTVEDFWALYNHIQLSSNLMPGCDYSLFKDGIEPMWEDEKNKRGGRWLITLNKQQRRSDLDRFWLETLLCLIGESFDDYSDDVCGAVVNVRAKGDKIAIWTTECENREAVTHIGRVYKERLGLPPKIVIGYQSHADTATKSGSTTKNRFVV

Experiments:
[1] = biological target: eukaryotic translation initiation factor eIF4E (endogenous, nuclear, U2OS) (human (endogenous in U2OS)) (UniProt P06730); assay: co-IP
[2] = biological target: eIF4E in eIF4E-overexpressing NOMO-1 cells (MSCV-pgk-GFP-eIF4E wildtype, not a GFP fusion) (UniProt P06730); assay: co-IP

B1: PRPF6 (protein, UniProt O94906 1-941)
chain: MNKKKKPFLGMPAPLGYVPGLGRGATGFTTRSDIGPARDANDPVDDRHAPPGKRTVGDQMKKNQAADDDDEDLNDTNYDEFNGYAGSLFSSGPYEKDDEEADAIYAALDKRMDERRKERREQREKEEIEKYRMERPKIQQQFSDLKRKLAEVTEEEWLSIPEVGDARNKRQRNPRYEKLTPVPDSFFAKHLQTGENHTSVDPRQTQFGGLNTPYPGGLNTPYPGGMTPGLMTPGTGELDMRKIGQARNTLMDMRLSQVSDSVSGQTVVDPKGYLTDLNSMIPTHGGDINDIKKARLLLKSVRETNPHHPPAWIASARLEEVTGKLQVARNLIMKGTEMCPKSEDVWLEAARLQPGDTAKAVVAQAVRHLPQSVRIYIRAAELETDIRAKKRVLRKALEHVPNSVRLWKAAVELEEPEDARIMLSRAVECCPTSVELWLALARLETYENARKVLNKARENIPTDRHIWITAAKLEEANGNTQMVEKIIDRAITSLRANGVEINREQWIQDAEECDRAGSVATCQAVMRAVIGIGIEEEDRKHTWMEDADSCVAHNALECARAIYAYALQVFPSKKSVWLRAAYFEKNHGTRESLEALLQRAVAHCPKAEVLWLMGAKSKWLAGDVPAARSILALAFQANPNSEEIWLAAVKLESENDEYERARRLLAKARSSAPTARVFMKSVKLEWVQDNIRAAQDLCEEALRHYEDFPKLWMMKGQIEEQKEMMEKAREAYNQGLKKCPHSTPLWLLLSRLEEKIGQLTRARAILEKSRLKNPKNPGLWLESVRLEYRAGLKNIANTLMAKALQECPNSGILWSEAIFLEARPQRRTKSVDALKKCEHDPHVLLAVAKLFWSQRKITKAREWFHRTVKIDSDLGDAWAFFYKFELQHGTEEQQEEVRKRCESAEPRHGELWCAVSKDIANWQKKIGDILRLVAGRIKNTF
- binding [1]: binds
- binding [2]: binds
